Source: patent publication US11357857B2, “Excipient compounds for protein processing” (COMERA LIFE SCIENCES, INC., priority 2014, dated 2022)
At least one structure is not confirmed: it was looked up by name or label, or the drawing left a doubt.

System: bovine gamma globulin (BGG)
Conditions: excipient 20 mg/mL

## NC(=O)c1ccc[n+]([C@@H]2O[C@H](COP(=O)([O-])OP(=O)(O)OC[C@H]3O[C@@H](n4cnc5c(N)ncnc54)[C@H](O)[C@@H]3O)[C@@H](O)[C@H]2O)c1 [Nicotinamide adenine dinucleotide]
  Viscosity Reduction: 44%
